Laboratory results reported in paper PMC12363935, “Unc-51 Like Kinase 3 (ULK3) is essential for autophagy and cell survival in multiple myeloma” (Research Square, 2025).
No constants are given. Whether binding was seen depends on the method and setting. In cells and extracts the contact can be indirect. Some entries that bind do so weakly or less than the wild type.

Target: T1, ATG13 (human (endogenous in U266)) (UniProt O75143)
T1 sequence: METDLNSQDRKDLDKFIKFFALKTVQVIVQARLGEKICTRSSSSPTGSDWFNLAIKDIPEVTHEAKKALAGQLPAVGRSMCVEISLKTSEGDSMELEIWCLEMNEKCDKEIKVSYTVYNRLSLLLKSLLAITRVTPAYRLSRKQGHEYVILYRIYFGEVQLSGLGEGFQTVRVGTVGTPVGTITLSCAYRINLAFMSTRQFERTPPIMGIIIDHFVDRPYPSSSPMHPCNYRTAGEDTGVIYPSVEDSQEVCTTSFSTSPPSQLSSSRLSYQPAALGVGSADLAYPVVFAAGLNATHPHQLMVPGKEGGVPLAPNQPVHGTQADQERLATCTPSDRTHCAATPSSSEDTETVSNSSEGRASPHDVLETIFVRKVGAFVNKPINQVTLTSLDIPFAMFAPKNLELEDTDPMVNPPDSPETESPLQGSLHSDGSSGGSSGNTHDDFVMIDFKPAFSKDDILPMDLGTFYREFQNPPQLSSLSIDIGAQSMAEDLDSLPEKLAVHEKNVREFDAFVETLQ
Test: co-IP; parental U266 lysate (5x10^6 cells, 2 mg total protein) in RIPA buffer with protease inhibitors, precleared with protein G agarose, 1 ug ATG13 antibody 1 h at 4 °C, beads overnight; pellet immunoblotted

B1: Unc-51 Like Kinase 3 (ULK3) (enzyme, UniProt Q6PHR2 1-472)
chain: MAGPGWGPPRLDGFILTERLGSGTYATVYKAYAKKDTREVVAIKCVAKKSLNKASVENLLTEIEILKGIRHPHIVQLKDFQWDSDNIYLIMEFCAGGDLSRFIHTRRILPEKVARVFMQQLASALQFLHERNISHLDLKPQNILLSSLEKPHLKLADFGFAQHMSPWDEKHVLRGSPLYMAPEMVCQRQYDARVDLWSMGVILYEALFGQPPFASRSFSELEEKIRSNRVIELPLRPLLSRDCRDLLQRLLERDPSRRISFQDFFAHPWVDLEHMPSGESLGRATALVVQAVKKDQEGDSAAALSLYCKALDFFVPALHYEVDAQRKEAIKAKVGQYVSRAEELKAIVSSSNQALLRQGTSARDLLREMARDKPRLLAALEVASAAMAKEEAAGGEQDALDLYQHSLGELLLLLAAEPPGRRRELLHTEVQNLMARAEYLKEQVKMRESRWEADTLDKEGLSESVRSSCTLQ
- binding: binds
